Results reported in the supplement of paper PMC12823440, “Inhibitors supercharge kinase turnover through native proteolytic circuits” (Nature, 2025).
Where a name gives a salt, the structure may show the parent alone. Some of the results follow. Hit calls seldom repeat between salt and free forms of one compound.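 Kinases, fused to nanoluciferase, were expressed in K562 cells; luminescence was measured every 4 h from 2 to 18 h as percent of control (DMSO = 100%, positive control = 0%). A time point is decreased if signal falls significantly (2 sigma). Hits were called by the authors by a rule that is not shown; the count of time points alone does not decide it.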

By UniProt entry, the sequences of proteins in these tests, tags left out.
UniProt Q15303, whole entry R711C: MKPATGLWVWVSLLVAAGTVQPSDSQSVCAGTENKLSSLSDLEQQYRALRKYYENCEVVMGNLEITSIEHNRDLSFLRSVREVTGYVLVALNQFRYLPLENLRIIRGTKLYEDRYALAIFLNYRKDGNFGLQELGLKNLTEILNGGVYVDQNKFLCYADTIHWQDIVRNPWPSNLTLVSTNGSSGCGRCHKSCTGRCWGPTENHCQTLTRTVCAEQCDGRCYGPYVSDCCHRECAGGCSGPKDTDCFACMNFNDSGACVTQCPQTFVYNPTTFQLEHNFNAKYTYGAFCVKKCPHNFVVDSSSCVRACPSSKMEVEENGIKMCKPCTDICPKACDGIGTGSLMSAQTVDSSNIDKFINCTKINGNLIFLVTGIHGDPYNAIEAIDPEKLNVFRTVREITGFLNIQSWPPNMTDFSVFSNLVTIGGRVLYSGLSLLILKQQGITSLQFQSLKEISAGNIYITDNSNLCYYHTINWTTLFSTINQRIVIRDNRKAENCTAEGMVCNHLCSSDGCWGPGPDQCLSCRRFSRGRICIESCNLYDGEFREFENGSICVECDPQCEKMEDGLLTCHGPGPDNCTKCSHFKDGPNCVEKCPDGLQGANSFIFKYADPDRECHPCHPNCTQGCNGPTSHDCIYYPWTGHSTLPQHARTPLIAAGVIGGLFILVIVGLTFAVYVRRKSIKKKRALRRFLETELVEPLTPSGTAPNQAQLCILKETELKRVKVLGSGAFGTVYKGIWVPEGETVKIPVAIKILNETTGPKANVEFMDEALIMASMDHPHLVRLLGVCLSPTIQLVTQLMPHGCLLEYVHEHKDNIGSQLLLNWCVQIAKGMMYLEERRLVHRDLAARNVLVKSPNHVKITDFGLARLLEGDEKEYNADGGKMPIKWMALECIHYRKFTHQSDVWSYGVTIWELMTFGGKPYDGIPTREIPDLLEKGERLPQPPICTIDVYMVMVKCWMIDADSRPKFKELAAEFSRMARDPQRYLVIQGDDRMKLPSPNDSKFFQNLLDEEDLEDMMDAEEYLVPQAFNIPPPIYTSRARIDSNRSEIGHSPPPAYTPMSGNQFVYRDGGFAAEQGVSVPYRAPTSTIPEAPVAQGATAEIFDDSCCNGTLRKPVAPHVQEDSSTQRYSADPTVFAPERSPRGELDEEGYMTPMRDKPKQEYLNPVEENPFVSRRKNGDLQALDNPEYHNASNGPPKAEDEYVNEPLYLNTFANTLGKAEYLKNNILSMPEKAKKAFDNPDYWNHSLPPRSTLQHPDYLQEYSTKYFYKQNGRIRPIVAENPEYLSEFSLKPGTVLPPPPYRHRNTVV

molecular target: ERBB4_R711C (clone: ERBB4_mut) (UniProt Q15303); assay: kinase-Nluc reporter destabilization hit call (1 = scored as downregulated) (binary); higher = compound decreases kinase abundance; details: 2.5 µM; K562; 2-18 h

kinase-Nluc reporter destabilization hit call, inactive:
C[C@H](Nc1cc(-c2cnn(C)c2)cc(Nc2cnccn2)n1)c1ccc(F)cc1 [Ilginatinib hydrochloride] 0
Cc1cccc(/C=N/Nc2cc(N3CCOCC3)nc(OCCc3ccccn3)n2)c1 [Apilimod] 0
Cc1ccc(NC(=O)c2ccc(CN3CCN(C)CC3)cc2)cc1Nc1nc(-c2cccnc2)cs1 [Masitinib (mesylate)] 0
COc1cc2nccc(Oc3ccc(NC(=O)C4(C(=O)Nc5ccc(F)cc5)CC4)cc3)c2cc1OC [Cabozantinib] 0
Cc1cccc(-c2[nH]c(CNc3ccccc3F)nc2-c2ccc3ncnn3c2)n1 [Vactosertib (Hydrochloride)] 0
CC(C)Oc1ccc(-c2nn([C@@H](C)c3oc4ccc(F)cc4c(=O)c3-c3cccc(F)c3)c3ncnc(N)c23)cc1F [Umbralisib (hydrochloride)] 0
CN(C)C(=O)c1cc2cnc(Nc3ccc(N4CCNCC4)cn3)nc2n1C1CCCC1 [Ribociclib succinate hydrate] 0
O=C(Nc1ccncc1)Nc1ccc(-c2nc(N3CCOCC3)nc(N3C4CCC3COC4)n2)cc1 [PKI-179 (hydrochloride)] 0
C=CC(=O)Nc1cc(Nc2nccc(-c3cn(C4CC4)c4ccccc34)n2)c(OC)cc1N(C)CCN(C)C [Almonertinib (hydrochloride)] 0
C=CC(=O)Nc1cc2c(Nc3ccc(F)c(Cl)c3)ncnc2cc1C#CC(C)(C)N1CCN(C)CC1 [AV-412 (free base)] 0
CNC(=O)c1cc(Oc2ccc(NC(=O)Nc3ccc(Cl)c(C(F)(F)F)c3)c(F)c2)ccn1 [Regorafenib] 0

same assay, conditions: 10 µM; K562; 2-18 h

kinase-Nluc reporter destabilization hit call, inactive:
COc1cc2c(-c3cnn4cc(N5CCC(N6CCN(C)CC6)CC5)cnc34)ccnc2cc1F [ALK2-IN-4 (succinate)] 0
C#Cc1cccc(Nc2ncnc3cc(OCCOC)c(OCCO)cc23)c1 [Desmethyl Erlotinib] 0
N=C(N)NC(=O)c1nc(Cl)c(N)nc1N [Amiloride (hydrochloride)] 0
N#CC[C@H](C1CCCC1)n1cc(-c2ncnc3[nH]ccc23)cn1 [Ruxolitinib (phosphate)] 0
CC(=O)c1c(C)c2cnc(Nc3ccc(N4CCNCC4)cn3)nc2n(C2CCCC2)c1=O [Palbociclib (monohydrochloride)] 0
O=C(O)c1ccc2c(c1)nc(Nc1cccc(Cl)c1)c1ccncc12 [Silmitasertib (sodium salt)] 0
COc1ccnc(C[S+]([O-])c2nc3cc(-n4cccc4)ccc3[nH]2)c1C (stereo not drawn) [Ilaprazole (sodium)] 0
CC(C)NC[C@@H](C(=O)N1CCN(c2ncnc3c2[C@H](C)C[C@H]3O)CC1)c1ccc(Cl)cc1 [Ipatasertib (dihydrochloride)] 0
CC(=O)c1c(C)c2cnc(Nc3ccc(N4CCNCC4)cn3)nc2n(C2CCCC2)c1=O [Palbociclib (isethionate)] 0
O=C(c1ccc(F)c(F)c1Nc1ccc(I)cc1F)N1CC(O)([C@@H]2CCCCN2)C1 [Cobimetinib (hemifumarate)] 0
COC(=O)[C@H](CC(C)C)NC(=O)c1ccc(NC[C@@H](N)CS)cc1-c1cccc2ccccc12 0
N#CCNC(=O)c1ccc(-c2ccnc(Nc3ccc(N4CCOCC4)cc3)n2)cc1 [Momelotinib] 0
CC(=O)Nc1cccc(-n2c(=O)n(C3CC3)c(=O)c3c(Nc4ccc(I)cc4F)n(C)c(=O)c(C)c32)c1 [Trametinib] 0
O=C(Nc1cnn2ccc(N3CCC[C@@H]3c3cc(F)ccc3F)nc12)N1CC[C@H](O)C1 [Larotrectinib sulfate] 0
C#Cc1cccc(Nc2ncnc3cc4c(cc23)OCCOCCOCCO4)c1 [Icotinib (Hydrochloride)] 0
COc1cc2nccc(Oc3ccc(NC(=O)C4(C(=O)Nc5ccc(F)cc5)CC4)cc3)c2cc1OC [Cabozantinib (S-malate)] 0
N#CC[C@H](C1CCCC1)n1cc(-c2ncnc3[nH]ccc23)cn1 [Ruxolitinib] 0
